Data: US10947275B2 (Ben-Gurion University of the Negev Research and Development …, priority 2010, dated 2021)

Assay: general procedure: Fmoc solid-phase peptide synthesis; MBHA Resin; HBTU, DIPEA
Settings: whole synthesis, analytical HPLC (Dionex), NMR, LCMS

## Ac-KRRMK^NvocWK^NvocK^Nvoc
  final HPLC purity: >90%
